Measured data: PubChem BioAssay AID602196 (INSERM, 2012)

Assay: 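Genes whose knock-down alters cisplatin killing of lung cancer cells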
Cell system: human A549 lung cancer cells
Knock-down reagent: siRNA pair against human genes
Duration: 48 h transfection before cisplatin; time from cisplatin to read-out not stated
Challenge: cisplatin at a dose killing half of control-siRNA cells; exact dose and duration not given
Detection: 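Cisplatin cell death as a shift from the 50% death seen with control siRNA; siRNAs toxic or growth-blocking alone scored 0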
Direction: two-siRNA summed score (-2 to +2): higher = both siRNAs protect from cisplatin killing; -2 means both sensitise
Rule for the call: 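Each siRNA scores 0 if harmful alone by LDH or WST-1, otherwise +1 if it reduces and -1 if it increases cisplatin killing; a gene is active when both siRNAs agree (sum +2 or -2)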
Calls: active = both siRNAs shift cisplatin killing the same way; inactive = no consistent shift, or siRNA harmful alone
Here is one part, drawn at random, of about 23,000 reagents tested. 455 of all reagents (2%) count as active. 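Active includes both protection and sensitisation; some change values fall well beyond the stated -50 to +50 range.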 A number with no mark means an inactive call. Further read-outs or replicates are left out here. The record does not give: the amount of reagent.

gene,two-siRNA summed score (-2 to +2)
DCAF5,0
TOB2,2 (active)
GABRP,0
LINC01973,0
ASS1,1
SLC11A1,0
CLIC1,-2 (active)
LLGL1,0
SH3GL1,0
EEF1E1,0
LOC392215,0
LOC401250,0
SLC7A7,0
MAD2L1BP,0
HOATZ,1
PLXNA4,0
CYP8B1,0
MRPL44,0
LOC401207,0
POLR1HASP,0
H4C13,0

4 of these entries, set out differently.
| gene | two-siRNA summed score (-2 to +2) |
| --- | --- |
| GABRP | 0 |
| LINC01973 | 0 |
| ASS1 | 1 |
| SLC11A1 | 0 |

Further records follow.
gene,two-siRNA summed score (-2 to +2)
PI4K2B,1
RUVBL1,-2 (active)
LOC387974,0
LOC388114,1
FLJ10359,1
CCNT2,0
DUS4L,0
VBP1,0
MARK2,0
RAB1C,0
PTCHD4,0
FBXL6,1
KCNE3,0
APOA5,0
UBAC2,-1
KIR3DL3,1
DRD3,0
HDAC10,0
UPK1B,0
ELAC2,0
USP51,-1
IRS1,-1
NREP,0
CCL3L1,1
TIMM8B,-1
DDAH2,-1
LINC01538,0
MSI2,0
TRIM74,0
LOC439978,0
CMTM5,0
PAPOLG,0
UBAP2L,0
FBXO24,-1
MTM1,0
LOC441569,0
